For at least one entry, the source does not settle the construct or the ends of the probe. At least one verdict was read from the data and is not stated in words by the source.
Biological target: Amyloid-beta 42 aggregates (sonicated fibrils) (UniProt P05067)
Assay: single-molecule imaging (AD-PAINT, TIRF)
Conditions: 100 nM Aptamer-DS1, 1 nM IS1-cy3B, 5 uM thioflavin-T (unit printed as mM in the extracted text, probably a lost mu); 1xPBS with 100 nM Aptamer-DS1, 1 nM IS1-cy3B and thioflavin-T; aggregates adsorbed on glass coverslip; aggregate adsorption at room temperature; recombinant protein; folded or branched DNA

Protein sequences, listed by entry. Tags and fused reporters are not part of them. Lines headed by an entry give the natural chain unless they say otherwise; changes in a name come on top.
UniProt P05067: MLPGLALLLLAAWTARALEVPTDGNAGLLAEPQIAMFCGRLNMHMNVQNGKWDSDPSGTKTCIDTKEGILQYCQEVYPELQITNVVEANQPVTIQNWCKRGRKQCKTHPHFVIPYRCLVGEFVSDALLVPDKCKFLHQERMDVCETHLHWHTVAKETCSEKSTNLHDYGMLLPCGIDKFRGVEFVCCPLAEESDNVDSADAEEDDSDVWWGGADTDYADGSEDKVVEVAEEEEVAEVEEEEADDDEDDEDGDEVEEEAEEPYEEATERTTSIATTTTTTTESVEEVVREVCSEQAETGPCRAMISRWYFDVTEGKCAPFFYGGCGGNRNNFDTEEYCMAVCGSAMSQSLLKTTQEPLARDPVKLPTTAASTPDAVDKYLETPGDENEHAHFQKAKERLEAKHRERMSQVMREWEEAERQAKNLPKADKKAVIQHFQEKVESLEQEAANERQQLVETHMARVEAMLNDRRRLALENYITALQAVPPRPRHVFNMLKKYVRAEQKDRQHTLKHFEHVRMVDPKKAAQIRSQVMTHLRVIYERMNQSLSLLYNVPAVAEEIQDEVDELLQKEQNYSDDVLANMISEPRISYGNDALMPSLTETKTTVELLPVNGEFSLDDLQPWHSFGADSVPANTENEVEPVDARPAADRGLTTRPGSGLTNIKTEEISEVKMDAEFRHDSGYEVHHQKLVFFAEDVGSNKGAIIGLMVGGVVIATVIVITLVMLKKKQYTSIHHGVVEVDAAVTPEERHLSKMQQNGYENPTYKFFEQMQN

Q: Does “GCCTGTGGTGTTGGGGCGGGTGCGTTATACATCTA [Aptamer-DS1]” bind?
A: Result: binds

Source: PMC10326375
